Only a part is listed here, and it is no random draw.

By UniProt entry, the sequences of proteins in these tests, tags left out. Where a name states a change or a piece, a line headed by the entry shows the natural chain unless it says otherwise.
UniProt O00178: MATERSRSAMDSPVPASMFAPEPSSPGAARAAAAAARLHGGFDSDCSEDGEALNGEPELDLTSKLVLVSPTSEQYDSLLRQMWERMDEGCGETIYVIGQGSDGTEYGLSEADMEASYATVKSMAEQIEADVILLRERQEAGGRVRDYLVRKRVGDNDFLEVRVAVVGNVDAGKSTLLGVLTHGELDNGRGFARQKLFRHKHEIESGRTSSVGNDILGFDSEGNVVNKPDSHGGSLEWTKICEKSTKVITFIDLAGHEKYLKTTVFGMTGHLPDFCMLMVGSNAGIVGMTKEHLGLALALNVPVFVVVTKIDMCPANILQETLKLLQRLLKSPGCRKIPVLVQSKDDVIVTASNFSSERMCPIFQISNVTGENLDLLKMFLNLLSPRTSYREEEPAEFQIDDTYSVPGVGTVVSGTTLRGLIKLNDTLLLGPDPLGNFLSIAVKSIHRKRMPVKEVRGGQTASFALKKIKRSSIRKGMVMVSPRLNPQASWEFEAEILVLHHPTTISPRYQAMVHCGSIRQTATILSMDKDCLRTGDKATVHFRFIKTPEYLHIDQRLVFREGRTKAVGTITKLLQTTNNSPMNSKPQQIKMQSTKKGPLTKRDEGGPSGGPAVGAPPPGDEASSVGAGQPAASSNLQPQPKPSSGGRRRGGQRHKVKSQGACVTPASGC
UniProt O00264: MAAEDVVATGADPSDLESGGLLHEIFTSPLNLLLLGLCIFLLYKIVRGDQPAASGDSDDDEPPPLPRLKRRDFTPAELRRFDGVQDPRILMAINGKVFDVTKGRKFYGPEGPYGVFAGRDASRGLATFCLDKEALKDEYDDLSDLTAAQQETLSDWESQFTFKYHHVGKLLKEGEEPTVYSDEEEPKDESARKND
UniProt O00571: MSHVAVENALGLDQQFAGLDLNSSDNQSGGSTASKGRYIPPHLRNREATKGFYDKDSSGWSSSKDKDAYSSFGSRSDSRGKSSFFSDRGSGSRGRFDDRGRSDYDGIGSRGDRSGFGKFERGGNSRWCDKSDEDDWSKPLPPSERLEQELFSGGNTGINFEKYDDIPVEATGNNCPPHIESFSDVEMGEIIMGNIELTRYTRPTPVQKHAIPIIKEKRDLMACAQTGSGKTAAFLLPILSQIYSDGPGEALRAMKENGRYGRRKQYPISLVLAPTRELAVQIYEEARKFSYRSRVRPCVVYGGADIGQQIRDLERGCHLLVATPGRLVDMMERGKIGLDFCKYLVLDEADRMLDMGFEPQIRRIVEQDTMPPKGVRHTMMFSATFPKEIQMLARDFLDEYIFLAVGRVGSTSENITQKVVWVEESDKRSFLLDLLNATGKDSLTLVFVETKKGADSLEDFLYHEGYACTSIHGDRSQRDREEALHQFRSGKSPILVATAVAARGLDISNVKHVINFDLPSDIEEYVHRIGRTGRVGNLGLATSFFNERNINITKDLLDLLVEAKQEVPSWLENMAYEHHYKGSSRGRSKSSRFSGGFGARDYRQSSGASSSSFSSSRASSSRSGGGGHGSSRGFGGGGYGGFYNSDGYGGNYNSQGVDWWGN
UniProt O00244: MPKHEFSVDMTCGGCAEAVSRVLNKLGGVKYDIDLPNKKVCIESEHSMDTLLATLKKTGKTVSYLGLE
UniProt O15304: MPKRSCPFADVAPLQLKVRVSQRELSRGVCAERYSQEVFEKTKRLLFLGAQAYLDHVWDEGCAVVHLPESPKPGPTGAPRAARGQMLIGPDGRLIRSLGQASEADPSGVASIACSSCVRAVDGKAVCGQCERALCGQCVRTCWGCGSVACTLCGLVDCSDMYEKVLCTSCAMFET
UniProt O14727: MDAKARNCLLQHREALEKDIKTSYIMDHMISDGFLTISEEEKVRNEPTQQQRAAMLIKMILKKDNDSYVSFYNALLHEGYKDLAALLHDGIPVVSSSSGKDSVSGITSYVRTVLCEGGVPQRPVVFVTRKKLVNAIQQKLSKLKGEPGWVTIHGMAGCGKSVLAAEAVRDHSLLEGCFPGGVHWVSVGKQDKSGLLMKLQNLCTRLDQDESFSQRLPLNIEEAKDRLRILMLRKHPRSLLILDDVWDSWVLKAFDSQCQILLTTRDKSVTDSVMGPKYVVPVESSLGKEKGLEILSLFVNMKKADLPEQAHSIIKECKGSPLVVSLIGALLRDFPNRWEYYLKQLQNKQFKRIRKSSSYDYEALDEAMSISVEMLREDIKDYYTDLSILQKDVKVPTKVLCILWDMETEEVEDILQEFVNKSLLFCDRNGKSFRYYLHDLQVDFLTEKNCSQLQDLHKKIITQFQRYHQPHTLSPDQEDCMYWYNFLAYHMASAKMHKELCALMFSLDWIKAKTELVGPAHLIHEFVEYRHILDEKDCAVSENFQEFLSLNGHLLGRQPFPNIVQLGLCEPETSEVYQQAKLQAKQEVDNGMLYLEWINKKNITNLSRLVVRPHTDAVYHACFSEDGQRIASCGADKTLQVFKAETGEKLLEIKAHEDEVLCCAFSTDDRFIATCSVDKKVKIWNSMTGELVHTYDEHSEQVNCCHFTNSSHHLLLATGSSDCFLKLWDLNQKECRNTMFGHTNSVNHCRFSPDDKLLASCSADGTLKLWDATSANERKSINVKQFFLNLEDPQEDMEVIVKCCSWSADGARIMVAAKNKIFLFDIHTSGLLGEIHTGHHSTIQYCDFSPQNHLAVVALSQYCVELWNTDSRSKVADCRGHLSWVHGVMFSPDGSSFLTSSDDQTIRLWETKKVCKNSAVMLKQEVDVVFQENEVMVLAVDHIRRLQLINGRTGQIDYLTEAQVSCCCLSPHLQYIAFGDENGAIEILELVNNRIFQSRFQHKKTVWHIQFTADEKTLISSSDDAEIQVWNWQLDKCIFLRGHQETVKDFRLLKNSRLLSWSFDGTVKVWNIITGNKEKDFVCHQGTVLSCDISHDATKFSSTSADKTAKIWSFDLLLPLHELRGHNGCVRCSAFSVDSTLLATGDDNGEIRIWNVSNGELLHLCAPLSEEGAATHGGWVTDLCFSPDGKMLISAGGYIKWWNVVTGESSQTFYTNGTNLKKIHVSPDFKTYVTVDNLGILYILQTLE
UniProt O14497, whole entry, looked up: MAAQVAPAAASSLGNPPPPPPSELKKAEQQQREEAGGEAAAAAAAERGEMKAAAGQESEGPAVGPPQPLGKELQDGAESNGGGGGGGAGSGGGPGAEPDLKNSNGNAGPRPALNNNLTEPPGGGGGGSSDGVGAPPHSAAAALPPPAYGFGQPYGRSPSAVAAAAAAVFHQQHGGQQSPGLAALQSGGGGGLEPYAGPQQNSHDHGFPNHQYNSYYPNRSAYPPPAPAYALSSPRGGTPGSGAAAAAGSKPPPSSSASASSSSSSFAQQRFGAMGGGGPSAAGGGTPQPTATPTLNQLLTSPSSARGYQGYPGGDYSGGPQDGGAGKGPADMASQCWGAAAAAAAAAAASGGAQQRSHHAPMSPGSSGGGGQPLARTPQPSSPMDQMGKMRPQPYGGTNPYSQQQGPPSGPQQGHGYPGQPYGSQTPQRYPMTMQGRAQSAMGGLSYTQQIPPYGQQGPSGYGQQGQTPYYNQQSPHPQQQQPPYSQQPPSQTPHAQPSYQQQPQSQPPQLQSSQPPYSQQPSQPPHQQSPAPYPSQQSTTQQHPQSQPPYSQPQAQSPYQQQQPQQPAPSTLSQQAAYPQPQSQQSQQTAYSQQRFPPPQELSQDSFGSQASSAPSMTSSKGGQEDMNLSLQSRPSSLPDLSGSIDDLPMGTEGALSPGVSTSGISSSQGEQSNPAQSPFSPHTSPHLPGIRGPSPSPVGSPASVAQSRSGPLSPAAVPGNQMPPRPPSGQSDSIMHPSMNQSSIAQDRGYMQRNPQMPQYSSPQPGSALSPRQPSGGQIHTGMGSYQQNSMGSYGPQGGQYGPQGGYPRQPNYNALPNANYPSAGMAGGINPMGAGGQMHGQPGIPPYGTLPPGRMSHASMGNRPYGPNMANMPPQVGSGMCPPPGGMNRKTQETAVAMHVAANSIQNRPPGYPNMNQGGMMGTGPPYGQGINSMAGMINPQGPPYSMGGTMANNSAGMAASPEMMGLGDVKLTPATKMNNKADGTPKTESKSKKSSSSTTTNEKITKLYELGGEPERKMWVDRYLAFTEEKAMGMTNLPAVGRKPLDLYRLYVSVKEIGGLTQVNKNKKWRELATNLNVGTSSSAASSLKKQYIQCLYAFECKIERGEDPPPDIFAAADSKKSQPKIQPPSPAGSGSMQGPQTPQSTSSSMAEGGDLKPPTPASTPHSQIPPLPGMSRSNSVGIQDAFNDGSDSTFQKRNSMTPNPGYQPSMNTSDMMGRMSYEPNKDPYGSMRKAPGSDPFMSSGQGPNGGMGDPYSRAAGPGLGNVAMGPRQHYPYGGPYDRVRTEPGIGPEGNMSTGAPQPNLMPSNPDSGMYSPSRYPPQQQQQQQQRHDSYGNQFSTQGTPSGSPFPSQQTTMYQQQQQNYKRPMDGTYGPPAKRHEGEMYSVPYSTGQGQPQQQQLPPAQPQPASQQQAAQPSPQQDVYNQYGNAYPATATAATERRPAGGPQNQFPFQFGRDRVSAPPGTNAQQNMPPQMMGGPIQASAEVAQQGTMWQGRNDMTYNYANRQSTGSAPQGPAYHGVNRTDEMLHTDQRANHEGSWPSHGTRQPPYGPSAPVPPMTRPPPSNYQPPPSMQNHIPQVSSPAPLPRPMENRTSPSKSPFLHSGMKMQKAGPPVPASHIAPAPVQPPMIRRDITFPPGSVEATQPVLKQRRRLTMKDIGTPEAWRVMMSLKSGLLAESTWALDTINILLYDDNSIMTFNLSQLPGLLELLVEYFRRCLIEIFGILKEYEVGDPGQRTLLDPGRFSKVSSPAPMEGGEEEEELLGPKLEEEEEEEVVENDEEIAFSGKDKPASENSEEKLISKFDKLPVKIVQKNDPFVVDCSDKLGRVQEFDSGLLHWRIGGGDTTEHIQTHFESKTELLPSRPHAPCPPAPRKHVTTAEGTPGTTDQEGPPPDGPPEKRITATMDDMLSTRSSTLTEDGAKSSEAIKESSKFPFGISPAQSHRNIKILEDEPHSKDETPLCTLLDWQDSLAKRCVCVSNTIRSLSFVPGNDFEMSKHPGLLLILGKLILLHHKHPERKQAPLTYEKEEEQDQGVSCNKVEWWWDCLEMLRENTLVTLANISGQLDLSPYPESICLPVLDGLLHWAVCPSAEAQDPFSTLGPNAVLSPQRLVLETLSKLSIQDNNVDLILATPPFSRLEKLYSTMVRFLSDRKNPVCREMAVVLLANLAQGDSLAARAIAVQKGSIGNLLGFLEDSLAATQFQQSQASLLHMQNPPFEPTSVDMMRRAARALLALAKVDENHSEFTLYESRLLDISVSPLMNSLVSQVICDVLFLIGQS
UniProt O00410: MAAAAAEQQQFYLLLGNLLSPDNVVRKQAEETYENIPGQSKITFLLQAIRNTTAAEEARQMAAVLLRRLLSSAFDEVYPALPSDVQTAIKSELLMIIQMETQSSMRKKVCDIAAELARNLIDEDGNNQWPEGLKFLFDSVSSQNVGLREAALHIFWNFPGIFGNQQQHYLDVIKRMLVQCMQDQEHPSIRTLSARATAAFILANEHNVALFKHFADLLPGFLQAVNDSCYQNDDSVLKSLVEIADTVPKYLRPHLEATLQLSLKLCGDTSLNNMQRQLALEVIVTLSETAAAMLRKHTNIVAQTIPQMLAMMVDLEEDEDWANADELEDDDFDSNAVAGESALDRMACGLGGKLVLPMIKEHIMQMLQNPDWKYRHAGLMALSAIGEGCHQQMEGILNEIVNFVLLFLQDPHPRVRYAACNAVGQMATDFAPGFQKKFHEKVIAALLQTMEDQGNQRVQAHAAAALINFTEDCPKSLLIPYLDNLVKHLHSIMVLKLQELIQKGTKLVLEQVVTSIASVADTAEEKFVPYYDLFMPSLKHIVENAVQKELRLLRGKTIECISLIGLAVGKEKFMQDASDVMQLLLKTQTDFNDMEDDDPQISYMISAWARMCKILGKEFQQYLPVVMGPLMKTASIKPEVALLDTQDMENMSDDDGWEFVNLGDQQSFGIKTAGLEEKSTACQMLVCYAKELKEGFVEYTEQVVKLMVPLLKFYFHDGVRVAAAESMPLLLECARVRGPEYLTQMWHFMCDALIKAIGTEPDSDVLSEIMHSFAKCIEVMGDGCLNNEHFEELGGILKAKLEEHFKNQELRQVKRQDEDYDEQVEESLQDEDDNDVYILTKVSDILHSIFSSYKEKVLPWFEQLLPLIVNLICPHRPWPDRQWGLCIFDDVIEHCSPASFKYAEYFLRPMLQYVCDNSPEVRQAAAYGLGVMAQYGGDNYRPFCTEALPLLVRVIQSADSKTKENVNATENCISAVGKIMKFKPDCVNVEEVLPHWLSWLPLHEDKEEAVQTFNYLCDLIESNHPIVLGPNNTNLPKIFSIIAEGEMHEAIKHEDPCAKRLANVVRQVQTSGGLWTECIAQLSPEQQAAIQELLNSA

Compound in the assay: COC(=O)C#Cc1ccccc1 [methyl 3-phenylpropiolate]
Put plainly: log2 ratio of iodoacetamide-alkyne labeling of the cysteine site, DMSO over compound (competition); higher = stronger covalent engagement of the cysteine by the compound, active = 1 or more. Conditions: 500 µM; treatment time 1 h; system: HEK293T cell lysate. In outline: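 The log2 competition ratio per cysteine is defined as mean reporter intensity in control channels over mean reporter intensity in compound channels. Lysate from HEK293T cells (2 mg/mL) received electrophile (500 µM) or vehicle for 1 h at ambient temperature, followed by iodoacetamide alkyne for 1 h. Samples were clicked to sCIP-TMT reagents, pooled, trypsin-digested overnight at 37 °C, streptavidin-enriched, acid-eluted and run on Orbitrap Eclipse LC-MS/MS with FAIMS, with quantification in FragPipe. Three replicates with duplicate channels were used, and any cysteine quantified in only one replicate was excluded.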
On to INPPL1 C1187 (UniProt O15357), for which the “log2 ratio of iodoacetamide-alkyne labeling” value (shortened to “log2 ratio”) was inactive: 0.564.

Turning to GTPBP1 C241 (UniProt O00178), the “log2 ratio” value is inactive: 0.237.

Consider AP3B1 C507 (UniProt O00203), for which the “log2 ratio” value is inactive: 0.248.

Turning to SPTBN2 C1140 (UniProt O15020), the “log2 ratio” value is inactive: 0.212.

Consider EIF3D C195 (UniProt O15371), for which the “log2 ratio” value is inactive: 0.141.

CD3EAP C150 (UniProt O15446): the “log2 ratio” value was inactive: 0.434.

With EIF3D C19 (UniProt O15371), the “log2 ratio” value was inactive: 0.173.

For UniProt O00442_C28, the “log2 ratio” value is inactive: -0.174.

On to PGRMC1 C129 (UniProt O00264), for which the “log2 ratio” value was inactive: 0.0627.

As for NVL C626 (UniProt O15381), the “log2 ratio” value was inactive: 0.651.

For EXOC5 C675 (UniProt O00471), the “log2 ratio” value was inactive: 0.193.

Consider DDX3X C223 (UniProt O00571), for which the “log2 ratio” value is inactive: 0.336.

Regarding NVL C192 (UniProt O15381), the “log2 ratio” value was inactive: 0.306.

Regarding IGF2BP3 C546 (UniProt O00425), the “log2 ratio” value was inactive: 0.284.

With ATOX1 C12 (UniProt O00244), the “log2 ratio” value is active: 1.27.

In the case of POLRMT C726 (UniProt O00411), the “log2 ratio” value was inactive: 0.6.

As to WDR46 C456 (UniProt O15213), the “log2 ratio” value was inactive: 0.493.

On to POLR3A C960 (UniProt O14802), for which the “log2 ratio” value is inactive: 0.493.

Regarding SIVA1 C6 (UniProt O15304), the “log2 ratio” value was active: 1.88.

Take APAF1 C115 (UniProt O14727): the “log2 ratio” value was inactive: 0.288.

Consider UniProt O00506_C357, for which the “log2 ratio” value was inactive: 0.395.

With MYO1C C161 (UniProt O00159), the “log2 ratio” value is inactive: 0.339.

As to ZZEF1 C2037 (UniProt O43149), the “log2 ratio” value is inactive: 0.217.

Take UniProt O15042_C563: the “log2 ratio” value was inactive: -0.182.

Take ARID1A C1827 (UniProt O14497): the “log2 ratio” value was inactive: 0.311.

With UniProt O00148_C223, the “log2 ratio” value was inactive: 0.0985.

Turning to UniProt O00567_C472, the “log2 ratio” value is inactive: 0.365.

For IPO5 C110 (UniProt O00410), the “log2 ratio” value is inactive: 0.471.

UniProt O00148_C197: the “log2 ratio” value was inactive: -0.0673.

On to CASK C633 (UniProt O14936), for which the “log2 ratio” value was inactive: 0.956.

As to CLIC1 C191 (UniProt O00299), the “log2 ratio” value is inactive: -0.029.

As for UniProt A6NJ78_C172, the “log2 ratio” value was inactive: 0.419.

On to WDR46 C172 (UniProt O15213), for which the “log2 ratio” value was inactive: 0.382.

Consider DNM1L C367 (UniProt O00429), for which the “log2 ratio” value was inactive: 0.986.

With RNMT C73 (UniProt O43148), the “log2 ratio” value was inactive: 0.607.

Regarding PFAS C502 (UniProt O15067), the “log2 ratio” value is inactive: 0.181.

Regarding UniProt B3KU38_C358, the “log2 ratio” value is inactive: 0.785.

Values taken from the supplement of paper PMC11006884.
